No constants are given. Whether binding was seen depends on the method and setting. Binding seen in cells or lysates may run through a third protein. These calls come from enrichment with a bait or labelling near it, and not all partners need be listed. Where a sequence is shown, tags or fusion partners need not be part of it.

For the assay, the target named is T1, DDK-tagged ERRA (estrogen related receptor, alpha) (UniProt O08580).
T1 sequence: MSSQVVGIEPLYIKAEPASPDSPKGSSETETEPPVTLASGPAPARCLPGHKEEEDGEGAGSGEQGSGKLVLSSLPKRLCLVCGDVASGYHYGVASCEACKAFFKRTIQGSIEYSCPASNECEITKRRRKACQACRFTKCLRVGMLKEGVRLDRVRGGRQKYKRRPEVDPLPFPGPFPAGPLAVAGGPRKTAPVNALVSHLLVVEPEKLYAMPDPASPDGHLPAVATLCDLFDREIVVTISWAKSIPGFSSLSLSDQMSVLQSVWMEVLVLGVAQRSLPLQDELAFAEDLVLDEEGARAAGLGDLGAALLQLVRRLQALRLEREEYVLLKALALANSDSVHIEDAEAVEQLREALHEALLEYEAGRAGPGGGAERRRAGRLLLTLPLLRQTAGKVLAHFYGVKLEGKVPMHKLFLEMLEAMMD
Briefly: affinity purification with mass spectrometry; DDK-tagged ERRA overexpressed in murine brown preadipocytes; Pierce IP Lysis Buffer; pulled down with FLAG-M2 magnetic beads; TMT labeling and LC-MS; IgG samples as control.

B1: flightless I actin binding protein (FLII) (protein, UniProt Q9JJ28 1-1271)
chain: MEATGVLPFVRGVDLSGNDFKGGYFPENVKAMTSLRWLKLNRTGLCYLPEELAALQKLEHLSVSHNHLTTLHGELSSLPSLRAIVARANSLKNSGVPDDIFKLDDLSVLDLSHNQLTECPRELENAKNMLVLNLSHNGIDSIPNQLFINLTDLLYLDLSENRLESLPPQMRRLVHLQTLVLNGNPLLHAQLRQLPAMMALQTLHLRNTQRTQSNLPTSLEGLSNLSDVDLSCNDLTRVPECLYTLPSLRRLNLSSNQIAELSLCIDQWVHLETLNLSRNQLTSLPSAICKLTKLKKLYLNSNKLDFDGLPSGIGKLTSLEEFMAANNNLELIPESLCRCPKLKKLVLNKNRLVTLPEAIHFLTEIQVLDVRENPSLVMPPKPADRTAEWYNIDFSLQNQLRLAGASPATVAAAAAVGSGSKDPLARKMRLRRRKDSAQDVQAKQVLKGMSDVAQEKNKNQEESIDARAPGGKVRRWDQGLEKPRLDYSEFFTEDVGQLPGLTIWQIENFVPVLVEEAFHGKFYEADCYIVLKTFLDDSGSLNWEIYYWIGGEATLDKKACSAIHAVNLRNYLGAECRTVREEMGDESEEFLQVFDNDISYIEGGTASGFYTVEDTHYVTRMYRVYGKKNIKLEPVPLKGSSLDPRFVFLLDQGLDIYVWRGAQATLSNTTKARLFAEKINKNERKGKAEITLLVQGQEPPGFWDVLGGEPSEIKNHVPDDFWPPQPKLYKVGLGLGYLELPQINYKLSVEHKKRPKVELMPGMRLLQSLLDTRCVYILDCWSDVFIWLGRKSPRLVRAAALKLGQELCGMLHRPRHTVVSRSLEGTEAQVFKAKFKNWDDVLTVDYTRNAEAVLQGQGLSGKVKRDTEKTDQMKADLTALFLPRQPPMPLAEAEQLMEEWNEDLDGMEGFVLEGRKFTRLPEEEFGHFYTQDCYVFLCRYWVPVEYEEEEKTEDKEGKASAEAREGEEAAAEAEEKQPEEDFQCIVYFWQGREASNMGWLTFTFSLQKKFESLFPGKLEVVRMTQQQENPKFLSHFKRKFIIHRGKRKVTQGTLQPTLYQIRTNGSALCTRCIQINTDSSLLNSEFCFILKVPFESEDNQGIVYAWVGRASDPDEAKLAEDILNTMFDASYSKQVINEGEEPENFFWVGIGAQKPYDDDAEYMKHTRLFRCSNEKGYFAVTEKCSDFCQDDLADDDIMLLDNGQEVYMWVGTQTSQVEIKLSLKACQVYIQHTRSKEHERPRRLRLVRKGNEQRAFTRCFHAWSTFRQAPA
For the molecule B1, the binding result is listed as “binds”.

B2: leucine rich repeat (in FLII) interacting protein 1 (LRRFIP1) (protein, UniProt Q3UZ39 1-729)
chain: MTSPEGAQNKEIDCLSPEAQRLAEARLAAKRAARAEAREIRMKELERQQKEVEERPDKDFAEKGSRNMPSLSAATLASLGGTSSRRGSGDTSISMDTEASIREIKDSLAEVEEKYKKAMVSNAQLDNEKTNFMYQVDTLKDMLLELEEQLAESQRQYEEKNKEFEREKHAHSILQFQFAEVKEALRQREEMLEKHGIILNSEIATNGETSDTVNDVGYQAPTKITKEELNALKSAGEGTLGKAKEVEVKKEIVEKVGQRETLQNSEQEQPKPNTGKDCVDRGVSHPGEKAENQRPAEDSALSPGPLAGAKCEQQVQSQDQENTSDLKNSEQIESHKVTNKSDSRASNSPEQSSCLEGLDSEVPGPTEDLKTDLGKGSFEPCPDYILGQTAEIDKVTCTDSRGTGGNQREDEVQAGDTTVEDQVGTVASGPAKQSKGTENHGESCLKDGLGQSSERELTQEVAEPEEAIVQIPQAGGENTITKADDAEGRDEKPIQAEAQASPGAPINQSGHQDTTGPGSTDAQRTPPHAKERKKQGKSEQQAEALDSPQKKTKNKKKKNKKKKAATPAETCRDANEELNCQDPDVGDMEEEERLQVTDKKQASGSPEQKIRAGSREPVEDPQSGSSGKQNKVEEDGPTEGPTDILDQNSPQCEDREISPVGEKGPQCDTSQIGSEEGHVTSQHGGQAVENHNLDNSDLSGQLEGFNSESGGQAREEVGNSKSKEDCTMS
On to B2, for which the binding result is “binds”.

Values taken from publication PMC7078224.
